Laboratory results as given in patent US12350344 (dated 2025).

Test: general procedure: solution-phase peptide synthesis; N-ethoxycarbonyl-2-ethoxy-1,2-dihydroquinoline

Substance	step yield (coupling step)	step yield (late stage modification step)
N-[4-(11,12-Didehydrodibenzo[b,f]azocin-5 (6H)-yl)-4-oxobutanoyl]glycylglycyl-L-valyl-N-{4-[({[(11a′S)-11′-hydroxy-7′-methoxy-8′-(3-{[(5aS)-10-methoxy-12-oxo-5a,12-dihydro-5H-indolo[2,1-c][1,4]benzodiazepin-9-yl]oxy}propoxy)-5′-oxo-11′,11a′-dihydro-1′H-spiro[cyclopropane-1,2′-pyrrolo[2,1-c][1,4]benzodiazepine]-10′(5′H)-yl]carbonyl}oxy)methyl]phenyl}-L-alaninamide	65%	–
N-[4-(11,12-Didehydrodibenzo[b,f]azocin-5 (6H)-yl)-4-oxobutanoyl]glycylglycyl-L-valyl-N-{4-[({[(11a′S)-11′-hydroxy-7′-methoxy-8′-(3-{[(11aS)-7-methoxy-2-(3-methoxyphenyl)-5-oxo-5,10,11,11a-tetrahydro-1H-pyrrolo[2,1-c][1,4]benzodiazepin-8-yl]oxy}propoxy)-5′-oxo-11′,11a′-dihydro-1′H-spiro[cyclopropane-1,2′-pyrrolo[2,1-c][1,4]benzodiazepine]-10′(5′H)-yl]carbonyl}oxy)methyl]phenyl}-L-alaninamide	52%	–
N-[4-(11,12-Didehydrodibenzo[b,f]azocin-5 (6H)-yl)-4-oxobutanoyl]glycylglycyl-L-valyl-N-{4-[({[(11a′S)-11′-hydroxy-7′-methoxy-8′-(3-{[(11aS)-7-methoxy-2-(4-methoxyphenyl)-5-oxo-5,10,11,11a-tetrahydro-1H-pyrrolo[2,1-c][1,4]benzodiazepin-8-yl]oxy}propoxy)-5′-oxo-11′,11a′-dihydro-1′H-spiro[cyclopropane-1,2′-pyrrolo[2,1-c][1,4]benzodiazepine]-10′(5′H)-yl]carbonyl}oxy)methyl]phenyl}-L-alaninamide	44%	–
N-[4-(11,12-Didehydrodibenzo[b,f]azocin-5 (6H)-yl)-4-oxobutanoyl]glycylglycyl-L-valyl-N-{4-[({[(11a′S)-11′-hydroxy-7′-methoxy-8′-(3-{[(11aS)-7-methoxy-2-(4-methoxyphenyl)-5-oxo-5,10,11,11a-tetrahydro-1H-pyrrolo[2,1-c][1,4]benzodiazepin-8-yl]oxy}propoxy)-5′-oxo-11′,11a′-dihydro-1′H-spiro[cyclopropane-1,2′-pyrrolo[2,1-c][1,4]benzodiazepine]-10′(5′H)-yl]carbonyl}oxy)methyl]phenyl}-L-lysinamide	67%	–
N-[4-(11,12-Didehydrodibenzo[b,f]azocin-5 (6H)-yl)-4-oxobutanoyl]glycylglycyl-L-valyl-N-{4-[({[(11a′S)-11′-hydroxy-7′-methoxy-8′-(3-{[(11aS)-7-methoxy-2-(6-methoxynaphthalen-2-yl)-5-oxo-5,10,11,11a-tetrahydro-1H-pyrrolo[2,1-c][1,4]benzodiazepin-8-yl]oxy}propoxy)-5′-oxo-11′,11a′-dihydro-1′H-spiro[cyclopropane-1,2′-pyrrolo[2,1-c][1,4]benzodiazepine]-10′(5′H)-yl]carbonyl}oxy)methyl]phenyl}-L-alaninamide	54%	–
N-[4-(11,12-Didehydrodibenzo[b,f]azocin-5 (6H)-yl)-4-oxobutanoyl]glycylglycyl-L-valyl-N-{4-[({[(11a′S)-11′-hydroxy-7′-methoxy-8′-(3-{[(11aS)-7-methoxy-5-oxo-2-(quinoxaline-6-yl)-5,10,11,11a-tetrahydro-1H-pyrrolo[2,1-c][1,4]benzodiazepin-8-yl]oxy}propoxy)-5′-oxo-11′,11a′-dihydro-1′H-spiro[cyclopropane-1,2′-pyrrolo[2,1-c][1,4]benzodiazepine]-10′(5′H)-yl]carbonyl}oxy)methyl]phenyl}-L-alaninamide	71%	–
N-[4-(11,12-Didehydrodibenzo[b,f]azocin-5 (6H)-yl)-4-oxobutanoyl]glycylglycyl-L-valyl-N-{4-[({[(11a′S)-11′-hydroxy-7′-methoxy-8′-(3-{[(11aS)-7-methoxy-5-oxo-2-(thiophen-3-yl)-5,10,11,11a-tetrahydro-1H-pyrrolo[2,1-c][1,4]benzodiazepin-8-yl]oxy}propoxy)-5′-oxo-11′,11a′-dihydro-1′H-spiro[cyclopropane-1,2′-pyrrolo[2,1-c][1,4]benzodiazepine]-10′(5′H)-yl]carbonyl}oxy)methyl]phenyl}-L-alaninamide	24%	–
N-[4-(11,12-Didehydrodibenzo[b,f]azocin-5 (6H)-yl)-4-oxobutanoyl]glycylglycyl-L-valyl-N-{4-[({[(11a′S)-11′-hydroxy-7′-methoxy-8′-(3-{[(11a′S)-7′-methoxy-5′-oxo-5′,11a′-dihydro-1′H-spiro[cyclopropane-1,2′-pyrrolo[2,1-c][1,4]benzodiazepine]-8′-yl]oxy}propoxy)-5′-oxo-11′,11a′-dihydro-1′H-spiro[cyclopropane-1,2′-pyrrolo[2,1-c][1,4]benzodiazepine]-10′(5′H)-yl]carbonyl}oxy)methyl]phenyl}-L-alaninamide	16%	–
N-[4-(11,12-Didehydrodibenzo[b,f]azocin-5 (6H)-yl)-4-oxobutanoyl]glycylglycyl-L-valyl-N-{4-[({[(11a′S)-11′-hydroxy-7′-methoxy-8′-[3-({(11aS)-7-methoxy-5-oxo-2-[4-(trifluoromethyl)phenyl]-5,10,11,11a-tetrahydro-1H-pyrrolo[2,1-c][1,4]benzodiazepin-8-yl}oxy)propoxy]-5′-oxo-11′,11a′-dihydro-1′H-spiro[cyclopropane-1,2′-pyrrolo[2,1-c][1,4]benzodiazepine]-10′(5′H)-yl]carbonyl}oxy)methyl]phenyl}-L-alaninamide	76%	–
N-[4-(11,12-Didehydrodibenzo[b,f]azocin-5 (6H)-yl)-4-oxobutanoyl]glycylglycyl-L-valyl-N-{4-[({[(11a′S)-11′-hydroxy-7′-methoxy-8′-[(5-{[(5aS)-10-methoxy-12-oxo-5a,12-dihydro-5H-indolo[2,1-c][1,4]benzodiazepin-9-yl]oxy}pentyl)oxy]-5′-oxo-11′,11a′-dihydro-1′H-spiro[cyclopropane-1,2′-pyrrolo[2,1-c][1,4]benzodiazepine]-10′(5′H)-yl]carbonyl}oxy)methyl]phenyl}-L-alaninamide	44%	–
N-[4-(11,12-Didehydrodibenzo[b,f]azocin-5 (6H)-yl)-4-oxobutanoyl]glycylglycyl-L-valyl-N-{4-[({[(11a′S)-11′-hydroxy-7′-methoxy-8′-[(5-{[(11a'S)-7′-methoxy-5′-oxo-5′,11a′-dihydro-1′H-spiro[cyclopropane-1,2′-pyrrolo[2,1-c][1,4]benzodiazepine]-8′-yl]oxy}pentyl)oxy]-5′-oxo-11′,11a′-dihydro-1′H-spiro[cyclopropane-1,2′-pyrrolo[2,1-c][1,4]benzodiazepine]-10′(5′H)-yl]carbonyl}oxy)methyl]phenyl}-L-alaninamide	66%	–
N-[4-(11,12-Didehydrodibenzo[b,f]azocin-5 (6H)-yl)-4-oxobutanoyl]glycylglycyl-L-valyl-N-{4-[({[(11a′S)-11′-hydroxy-7′-methoxy-8′-[(5-{[(11aS)-7-methoxy-2-methylidene-5-oxo-2,3,5,11a-tetrahydro-1H-pyrrolo[2,1-c][1,4]benzodiazepin-8-yl]oxy}pentyl)oxy]-5′-oxo-11′,11a′-dihydro-1′H-spiro[cyclopropane-1,2′-pyrrolo[2,1-c][1,4]benzodiazepine]-10′(5′H)-yl]carbonyl}oxy)methyl]phenyl}-L-alaninamide	89%	–
N-[4-(11,12-Didehydrodibenzo[b,f]azocin-5 (6H)-yl)-4-oxobutanoyl]glycylglycyl-L-valyl-N-{4-[({[(11a′S)-11′-hydroxy-7′-methoxy-8′-[(5-{[(11a′S)-7′-methoxy-5′-oxo-5′,10′,11′,11a′-tetrahydro-1′H-spiro[cyclopropane-1,2′-pyrrolo[2,1-c][1,4]benzodiazepine]-8′-yl]oxy}pentyl)oxy]-5′-oxo-11′,11a′-dihydro-1′H-spiro[cyclopropane-1,2′-pyrrolo[2,1-c][1,4]benzodiazepine]-10′(5′H)-yl]carbonyl}oxy)methyl]phenyl}-L-alaninamide	63%	–
N-[4-(11,12-Didehydrodibenzo[b,f]azocin-5 (6H)-yl)-4-oxobutanoyl]glycylglycyl-L-valyl-N-{4-[({[(11a′S)-11′-hydroxy-8′-(3-{[(11aS)-2-(4-hydroxyphenyl)-7-methoxy-5-oxo-5,10,11,11a-tetrahydro-1H-pyrrolo[2,1-c][1,4]benzodiazepin-8-yl]oxy}propoxy)-7′-methoxy-5′-oxo-11′,11a′-dihydro-1′H-spiro[cyclopropane-1,2′-pyrrolo[2,1-c][1,4]benzodiazepine]-10′(5′H)-yl]carbonyl}oxy)methyl]phenyl}-L-alaninamide	50%	–
N-[4-(11,12-Didehydrodibenzo[b,f]azocin-5 (6H)-yl)-4-oxobutanoyl]glycylglycyl-L-valyl-N-{4-[({[(11a′S)-11′-hydroxy-8′-[3-({(11aS)-2-[4-(hydroxymethyl)phenyl]-7-methoxy-5-oxo-5,10,11,11a-tetrahydro-1H-pyrrolo[2,1-c][1,4]benzodiazepin-8-yl}oxy)propoxy]-7′-methoxy-5′-oxo-11′,11a′-dihydro-1′H-spiro[cyclopropane-1,2′-pyrrolo[2,1-c][1,4]benzodiazepine]-10′(5′H)-yl]carbonyl}oxy)methyl]phenyl}-L-alaninamide	–	85%
N-[4-(11,12-Didehydrodibenzo[b,f]azocin-5 (6H)-yl)-4-oxobutanoyl]glycylglycyl-L-valyl-N-{4-[({[(11a′S)-11′-hydroxy-8′-[(5-{[(11aS)-2-(hydroxymethyl)-7-methoxy-5-oxo-5,11a-dihydro-1H-pyrrolo[2,1-c][1,4]benzodiazepin-8-yl]oxy}pentyl)oxy]-7′-methoxy-5′-oxo-11′,11a′-dihydro-1′H-spiro[cyclopropane-1,2′-pyrrolo[2,1-c][1,4]benzodiazepine]-10′(5′H)-yl]carbonyl}oxy)methyl]phenyl}-L-alaninamide	48%	–
